# Source: the supplement of paper PMC8728848
# The other results are listed elsewhere or left out.
# B1: PEB4 (Campylobacter jejuni), A1VYV6 (protein)
# chain: MKKFSLVAAALIAGVALNVNAATVATVNGKSISDAEVSEFFAPMLRGQDFKTLPDNQKKALIQQYIMQDLILQDAKKQNLEKDPLYTKELDRAKDAILVNVYQEKILNTIKIDAAKVKAFYDQNKDKYVKPARVQAKHILVATEKEAKDIINELKGLKGKELDAKFSELAKEKSIDPGSKNQGGELGWFDQSTMVKPFTDAAFALKNGTITTTPVKTNFGYHVILKENSQAKGQIKFDEVKQGIENGLKFEEFKKVINQKGQDLLNSAKVEYK
# What was measured:
# Test in all cases: glycan array binding signal (z-score within array); higher = stronger binding
# Details in all cases: glycan notation: IUPAC condensed, linker removed
# [1] = biological target: Man(a1-2)Man(a1-6)[Man(a1-3)]Man(a1-6)[Man(a1-2)Man(a1-2)Man(a1-3)]Man(b1-4)GlcNAc(b1-4)GlcNAc
# Method in brief: (§1)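 Negative Z-scores can be read as non-binding. The Z-score is calculated within each array and then averaged across arrays of one protein sequence at different concentrations or buffers and across linkers. Arrays, 3228 in all, were curated from the Consortium for Functional Glycomics database and kept only where the protein sequence was available.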
# [2] = biological target: Man(a1-3)[Man(a1-6)]Man
# Method in brief: as §1
# [3] = biological target: Man(a1-3)[Man(a1-6)]Man(a1-6)[Man(a1-2)Man(a1-3)]Man(b1-4)GlcNAc(b1-4)GlcNAc
# Method in brief: as §1
# [4] = biological target: Man(a1-3)[Man(a1-6)]Man(a1-6)[Man(a1-3)]Man
# Method in brief: as §1
# [5] = biological target: Man(a1-3)[Man(a1-6)]Man(a1-6)[Man(a1-3)]Man(b1-4)GlcNAc(b1-4)GlcNAc
# Method in brief: as §1
# [6] = biological target: Man(a1-3)[Man(a1-6)]Man(b1-4)GlcNAc(b1-4)GlcNAc
# Method in brief: as §1
# [7] = biological target: Man(a1-6)Man
# Method in brief: as §1
# [8] = biological target: Man(b1-4)GlcNAc
# Method in brief: as §1
# [9] = biological target: Neu5Ac(a2-3)Gal
# Method in brief: as §1
# [10] = biological target: Neu5Ac(a2-3)Gal(b1-3)GalNAc
# Method in brief: as §1
# [11] = biological target: Neu5Ac(a2-3)Gal(b1-3)GalNAc(b1-3)Gal(a1-4)Gal(b1-4)Glc
# Method in brief: as §1
# [12] = biological target: Neu5Ac(a2-3)Gal(b1-3)GalNAc(b1-4)[Neu5Ac(a2-3)]Gal(b1-4)Glc
# Method in brief: as §1
# [13] = biological target: Neu5Ac(a2-3)Gal(b1-3)GalNAc6S
# Method in brief: as §1
# [14] = biological target: Neu5Ac(a2-3)Gal(b1-3)GlcNAc
# Method in brief: as §1
# [15] = biological target: Neu5Ac(a2-3)Gal(b1-3)GlcNAc(b1-2)Man(a1-3)[Neu5Ac(a2-3)Gal(b1-3)GlcNAc(b1-2)Man(a1-6)]Man(b1-4)GlcNAc(b1-4)GlcNAc
# Method in brief: as §1
# [16] = biological target: Neu5Ac(a2-3)Gal(b1-3)GlcNAc(b1-3)Gal(b1-3)GlcNAc
# Method in brief: as §1
# [17] = biological target: Neu5Ac(a2-3)Gal(b1-3)GlcNAc(b1-3)Gal(b1-4)GlcNAc
# Method in brief: as §1
# [18] = biological target: Neu5Ac(a2-3)Gal(b1-3)GlcNAc(b1-3)GalNAc
# Method in brief: as §1
# [19] = biological target: Neu5Ac(a2-3)Gal(b1-3)GlcNAc6S
# Method in brief: as §1
# [20] = biological target: Neu5Ac(a2-3)Gal(b1-3)[Fuc(a1-4)]GlcNAc
# Method in brief: as §1
# [21] = biological target: Neu5Ac(a2-3)Gal(b1-3)[Fuc(a1-4)]GlcNAc(b1-3)Gal(b1-3)[Fuc(a1-4)]GlcNAc
# Method in brief: as §1
# [22] = biological target: Neu5Ac(a2-3)Gal(b1-3)[Fuc(a1-4)]GlcNAc(b1-3)Gal(b1-4)[Fuc(a1-3)]GlcNAc
# Method in brief: as §1
# [23] = biological target: Neu5Ac(a2-3)Gal(b1-3)[Neu5Ac(a2-3)Gal(b1-4)]GlcNAc
# Method in brief: as §1
# [24] = biological target: Neu5Ac(a2-3)Gal(b1-3)[Neu5Ac(a2-6)]GalNAc
# Method in brief: as §1
# [25] = biological target: Neu5Ac(a2-3)Gal(b1-4)Glc
# Method in brief: as §1
# [26] = biological target: Neu5Ac(a2-3)Gal(b1-4)GlcNAc
# Method in brief: as §1
# [27] = biological target: Neu5Ac(a2-3)Gal(b1-4)GlcNAc(b1-2)Man(a1-3)[GlcNAc(b1-2)Man(b1-4)GlcNAc(b1-2)Man(a1-6)]Man(b1-4)GlcNAc(b1-4)GlcNAc
# Method in brief: as §1
# [28] = biological target: Neu5Ac(a2-3)Gal(b1-4)GlcNAc(b1-2)Man(a1-3)[Neu5Ac(a2-6)Gal(b1-4)GlcNAc(b1-2)Man(a1-6)]Man(b1-4)GlcNAc(b1-4)GlcNAc
# Method in brief: as §1
# [29] = biological target: Neu5Ac(a2-3)Gal(b1-4)GlcNAc(b1-3)Gal(b1-3)GlcNAc
# Method in brief: as §1
# [30] = biological target: Neu5Ac(a2-3)Gal(b1-4)GlcNAc(b1-3)Gal(b1-4)GlcNAc
# Method in brief: as §1
# [31] = biological target: Neu5Ac(a2-3)Gal(b1-4)GlcNAc(b1-3)Gal(b1-4)GlcNAc(b1-3)Gal(b1-4)GlcNAc
# Method in brief: as §1
# [32] = biological target: Neu5Ac(a2-3)Gal(b1-4)GlcNAc(b1-3)Gal(b1-4)[Fuc(a1-3)]GlcNAc
# Method in brief: as §1
# [33] = biological target: Neu5Ac(a2-3)Gal(b1-4)GlcNAc(b1-3)GalNAc
# Method in brief: as §1
# [34] = biological target: Neu5Ac(a2-3)Gal(b1-4)GlcNAc(b1-6)[Gal(b1-3)]GalNAc
# Method in brief: as §1
# [35] = biological target: Neu5Ac(a2-3)Gal(b1-4)GlcNAc(b1-6)[Neu5Ac(a2-3)Gal(b1-3)]GalNAc
# Method in brief: as §1
# [36] = biological target: Neu5Ac(a2-3)Gal(b1-4)GlcNAc6S
# Method in brief: as §1
# [37] = biological target: Neu5Ac(a2-3)Gal(b1-4)[Fuc(a1-3)]GlcNAc
# Method in brief: as §1
binder,measurement,setting,value
B1,glycan array binding signal (z-score),[1],0.969
same,glycan array binding signal (z-score),[2],0.078
same,glycan array binding signal (z-score),[3],0.307
same,glycan array binding signal (z-score),[4],0.141
same,glycan array binding signal (z-score),[5],-0.553
same,glycan array binding signal (z-score),[6],-0.217
same,glycan array binding signal (z-score),[7],1.64
same,glycan array binding signal (z-score),[8],0.622
same,glycan array binding signal (z-score),[9],-0.575
same,glycan array binding signal (z-score),[10],-0.816
same,glycan array binding signal (z-score),[11],0.791
same,glycan array binding signal (z-score),[12],2.36
same,glycan array binding signal (z-score),[13],-0.879
same,glycan array binding signal (z-score),[14],0.33
same,glycan array binding signal (z-score),[15],-1.03
same,glycan array binding signal (z-score),[16],-0.619
same,glycan array binding signal (z-score),[17],-0.833
same,glycan array binding signal (z-score),[18],-1.02
same,glycan array binding signal (z-score),[19],-1.09
same,glycan array binding signal (z-score),[20],-1.07
same,glycan array binding signal (z-score),[21],-0.853
same,glycan array binding signal (z-score),[22],-0.076
same,glycan array binding signal (z-score),[23],-0.455
same,glycan array binding signal (z-score),[24],0.189
same,glycan array binding signal (z-score),[25],0.378
same,glycan array binding signal (z-score),[26],-0.737
same,glycan array binding signal (z-score),[27],-0.245
same,glycan array binding signal (z-score),[28],0.812
same,glycan array binding signal (z-score),[29],-0.489
same,glycan array binding signal (z-score),[30],0.491
same,glycan array binding signal (z-score),[31],0.263
same,glycan array binding signal (z-score),[32],0.086
same,glycan array binding signal (z-score),[33],0.116
same,glycan array binding signal (z-score),[34],-1.19
same,glycan array binding signal (z-score),[35],-0.505
same,glycan array binding signal (z-score),[36],0.139
same,glycan array binding signal (z-score),[37],-0.828

# Pulled one by one from above, 2 records:
binder,measurement,setting,value
B1,glycan array binding signal (z-score),[35],-0.505
same,glycan array binding signal (z-score),[27],-0.245
